From article PMC7431705, “Angiogenesis Inhibition by a Short 13 Amino Acid Peptide Sequence of Tetrastatin, the α4(IV) NC1 Domain of Collagen IV” (Frontiers in Cell and Developmental Biology, 2020)
These are yes or no findings as the source states them, for the method shown. A result given as binding can be weak or reduced; the word gives no strength.

T1: QS-13 peptide (…), minimal active sequence of Tetrastatin, the α4(IV) NC1 domain of collagen IV
T1 sequence (peptide): QKISRCQVCVKYS


Experiments:
[1] = target: T1, QS-13 peptide (…), minimal active sequence of Tetrastatin, the α4(IV) NC1 domain of collagen IV; test: affinity chromatography; HUVEC extract (RIPA lysate) loaded at 4°C on a HiTrap NHS-activated Sepharose column functionalized with QS-13; wash 10 mM Tris, 1 mM CaCl2, 1 mM MgCl2, pH 7.6, 0.1% octylglucoside; elution with 0.15, 0.6 and 1 M NaCl; western blot for α5 and β1 integrin; only the target purified
[2] = target: α5β1 integrin (recombinant, R&D Systems 3230-A5-050); test: ELISA; solid phase competition assay: wells coated with 25 nM α5β1 integrin; biotinylated QS-13 with or without unbiotinylated QS-13 (molar ratio 1/1 to 250/1), 90 min at room temperature; streptavidin-peroxidase detection; both purified

Row | binding [1] | binding [2] | Molecule
1 | binds |  | α5β1 integrin of Human Umbilical Vein Endothelial Cells (HUVEC) (receptor)
2 |  | binds | QKISRCQVCVKYS [QS-13 peptide (…), minimal active sequence of Tetrastatin, the α4(IV) NC1 domain of collagen IV]
